# Source: publication PMC7819943, “Rice protein-binding microarrays: a tool to detect cis-acting elements near promoter regions in rice”
# Chains of the proteins cited; added tags and fusions are not shown.
# UniProt Q0JBA9, entry or part of it: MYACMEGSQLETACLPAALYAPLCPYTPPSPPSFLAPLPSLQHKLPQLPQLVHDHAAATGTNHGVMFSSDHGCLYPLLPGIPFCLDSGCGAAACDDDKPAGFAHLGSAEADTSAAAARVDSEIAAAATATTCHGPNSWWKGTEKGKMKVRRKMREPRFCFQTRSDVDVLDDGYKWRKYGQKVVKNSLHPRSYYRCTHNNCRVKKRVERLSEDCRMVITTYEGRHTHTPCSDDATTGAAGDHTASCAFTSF
# The other results are listed elsewhere or left out.
# Target: OsWRKY34 (Oryza sativa, UniProt Q0JBA9 1-250)
# Assay: protein-binding microarray (RPBM); PBS, 2% BSA, 51.3 ng/ul salmon testes DNA, 50 uM zinc acetate, 200 nM TF, 25 C, 1 h; high values mean tight binding
# Settings: protein: recombinant; tags: N-terminal polyhistidine and DsRed monomer fusion (pET32a); label: CyDye5-dUTP incorporated in the synthesized complementary strand; 3' TTTTT single-stranded linker to array surface; dsDNA, one strand shown
# Procedure, shortened: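 The binding signal for each feature is its fluorescence intensity in arbitrary units. An Axon 4000B scanner was used to read a custom Agilent array that had been made double-stranded with Cy5-dUTP primer extension, blocked with 2% BSA, incubated at 25 °C for 1 h with 200 nM protein in PBS, 2% BSA, salmon testes DNA and 50 µM zinc acetate, and washed. The protein was an N-terminal polyhistidine–DsRed transcription factor fusion from E. coli BL21-CodonPlus, purified on Ni–NTA.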
row,Sequence,binding signal
1,TTTGGGCTTTTGGCTGGACGCGTCACGCGCGCGTTATTATCGGAGTCACCTAGTGCAG,8340 fluorescence intensity (a.u.)
2,ATTAAGCATGGACTAGAATAGTCCACATGTTGTATTTTTTCGGAGTCACCTAGTGCAG,8440 fluorescence intensity (a.u.)
3,CTCTCTTTCGCAGAAATCCTGGGCGCCTCTCTGTCAGTTTCGGAGTCACCTAGTGCAG,10200 fluorescence intensity (a.u.)
4,GGGCTTGTTGGGGTTGCTGTGGTAGCCGGGAGGGAGGGGACGGAGTCACCTAGTGCAG,28500 fluorescence intensity (a.u.)
5,GCTCGCTCGGTCGCTCGTTCCATTTGGGTTTGACACCTCACGGAGTCACCTAGTGCAG,8900 fluorescence intensity (a.u.)
6,TTGATTGCAACGTTTGACCACTTGTCTTATTTTTTTTTTGCGGAGTCACCTAGTGCAG,9780 fluorescence intensity (a.u.)
7,TCTTCTGCCGCTCGTTTTCCATTGCCGACGCGCAGCACGCCGGAGTCACCTAGTGCAG,8480 fluorescence intensity (a.u.)
8,ATCAAACCCATCAAAGATGCGCATGTCTGCCATTGGCTCTCGGAGTCACCTAGTGCAG,8150 fluorescence intensity (a.u.)
9,ACACCCAAAATTTTTCATTTCTCGCGAACTAAACGGGGCCCGGAGTCACCTAGTGCAG,8120 fluorescence intensity (a.u.)
10,TTTTCTTTTCTTCTTCTTTTCGTTCTTCTTGGATAATGCTCGGAGTCACCTAGTGCAG,12700 fluorescence intensity (a.u.)
11,ACATCAAAACTTTCTACACACATAAATTTTTAACTTTTCCCGGAGTCACCTAGTGCAG,9600 fluorescence intensity (a.u.)
12,TGTTTGTGTGGCATCTTTTTTTTTTCGTGTTTGCGTCGCACGGAGTCACCTAGTGCAG,12700 fluorescence intensity (a.u.)
13,TCACTTTATCTATTCCTATTACATTTATCTTTGCCTTTTACGGAGTCACCTAGTGCAG,10800 fluorescence intensity (a.u.)
14,GCCACCGATCCGCCCGTCCCTGCTCTGGGCTTGCCGCCTTCGGAGTCACCTAGTGCAG,8870 fluorescence intensity (a.u.)
15,ACCCGTTGCAACGCACGGGCATTTTTCTAGTCCATTATAACGGAGTCACCTAGTGCAG,9180 fluorescence intensity (a.u.)
16,GATGTTCATTTTCTCTGCAGGGTGTAGGTCTATTGTCGTCCGGAGTCACCTAGTGCAG,10500 fluorescence intensity (a.u.)
17,CACCGCACCACTGTCTCGTCGACTCCGCTGCTCTACAACGCGGAGTCACCTAGTGCAG,9690 fluorescence intensity (a.u.)
18,CAGTTCCCTGCTATAACATATTCTTTGTTTTATGTGGCTACGGAGTCACCTAGTGCAG,8150 fluorescence intensity (a.u.)
19,CGGCGGGGATCGAGCTAGGGTTTCTGCAGTTGTTTTTTATCGGAGTCACCTAGTGCAG,11600 fluorescence intensity (a.u.)
20,AAAACTTATGACTTTCATTTTCAATCTTGGCCACTTGTATCGGAGTCACCTAGTGCAG,11000 fluorescence intensity (a.u.)
21,GTCTATTTACCTCTCAGATTATAAACCGCACCCAAAATTTCGGAGTCACCTAGTGCAG,8410 fluorescence intensity (a.u.)
22,TTGGACGCTTAGGTGCTTGTTGCTTATTGGTGGGTGTAAACGGAGTCACCTAGTGCAG,9170 fluorescence intensity (a.u.)
23,CCGATCCAATCCGTCGCCGTGCCGCCTGCTATTGCTCCAACGGAGTCACCTAGTGCAG,8600 fluorescence intensity (a.u.)
24,TTATATTCTATGCTCTGGATCTACACATATCTGCTGTGTGCGGAGTCACCTAGTGCAG,8650 fluorescence intensity (a.u.)
25,TTCAGTCAATTTATAGTTGGTTGTTGAGAGGATTTAGAATCGGAGTCACCTAGTGCAG,9160 fluorescence intensity (a.u.)
26,AGGGTCTATTTTTATAAATCTTTTCGCCGATATAATATTTCGGAGTCACCTAGTGCAG,9150 fluorescence intensity (a.u.)
27,GCAGGTCAATAGTATGTGTGATTTAGTTTGACCAGGGAGGCGGAGTCACCTAGTGCAG,11800 fluorescence intensity (a.u.)

# As entered above.
# For binding signal, ACACCCAAAATTTTTCATTTCTCGCGAACTAAACGGGGCCCGGAGTCACCTAGTGCAG has the entry 8120 fluorescence intensity (a.u.)
# For binding signal, GATGTTCATTTTCTCTGCAGGGTGTAGGTCTATTGTCGTCCGGAGTCACCTAGTGCAG has the entry 10500 fluorescence intensity (a.u.)
# For binding signal, GTCTATTTACCTCTCAGATTATAAACCGCACCCAAAATTTCGGAGTCACCTAGTGCAG has the entry 8410 fluorescence intensity (a.u.)

# (further entries)

row,Sequence,binding signal
1,TTCGAACTTTTCTATTGCAATATTCTCCAGCTTAAGTTTCCGGAGTCACCTAGTGCAG,8430 fluorescence intensity (a.u.)
2,ACACCTTCCCCACCATCCTCCTGCCTTCCGTGCGCGGTCCCGGAGTCACCTAGTGCAG,9080 fluorescence intensity (a.u.)
3,CCCGCTATCCTGCCAAATCACTGATCTGCCCTCATGCCATCGGAGTCACCTAGTGCAG,14100 fluorescence intensity (a.u.)
4,GGCACCGGCGGAGGGGCGCGGGAGGGGAGGCGGCGGCGAGCGGAGTCACCTAGTGCAG,15600 fluorescence intensity (a.u.)
5,AGTCATCACCATCTCTATAGTGCATCCGGAGAGATCGATCCGGAGTCACCTAGTGCAG,8740 fluorescence intensity (a.u.)
6,ATAATGGTTTGTTATCTTCTCTGAACTGGTTCGTTTCTAACGGAGTCACCTAGTGCAG,8250 fluorescence intensity (a.u.)
7,GCCGTATTTGTTTTTTTGGGATTTGGGGTTTGGATACTTGCGGAGTCACCTAGTGCAG,18700 fluorescence intensity (a.u.)
8,GCTGAAAATTCACCGTGGCGAAAAATCCGGGATTTTTTTTCGGAGTCACCTAGTGCAG,8810 fluorescence intensity (a.u.)
9,TGTACTTCCTCTGTTACATATTGCTGAGATTGCTCTTCCTCGGAGTCACCTAGTGCAG,8170 fluorescence intensity (a.u.)
10,AGATCTCCCCTCCGCCTCGTCTCGTCTCGTCTCGGTCTCTCGGAGTCACCTAGTGCAG,9300 fluorescence intensity (a.u.)
11,GATATCTGGTGGTTTTGGGATGTCAATTAAACTCGACACGCGGAGTCACCTAGTGCAG,8860 fluorescence intensity (a.u.)
12,CGCCCATTCCAAAACCCTCCGCCGCCGCCGCCGCCGCCGCCGGAGTCACCTAGTGCAG,8930 fluorescence intensity (a.u.)
13,TCCTGTGGTGCCCCATGTCGCTCGGGTACTTCCTCAGCACCGGAGTCACCTAGTGCAG,9050 fluorescence intensity (a.u.)
14,TCATCATGTATAATACTATTTGTTATTGTATAGCTAGCTTCGGAGTCACCTAGTGCAG,10500 fluorescence intensity (a.u.)
15,GTTGACGGGGTTTGTGAGGTGTGGCGGTGACTTGGAAAGACGGAGTCACCTAGTGCAG,10100 fluorescence intensity (a.u.)
16,TGTAACTGCTCACACTCTTTGCTCTAATCATATGGTTAATCGGAGTCACCTAGTGCAG,8650 fluorescence intensity (a.u.)
17,CCTCTCTCCTCTTTTTTTCCTCATCCGTGCGCGATACTGCCGGAGTCACCTAGTGCAG,8410 fluorescence intensity (a.u.)
18,CCATTTTCACTCATGTTTCCACCCACCTATTTTACCCTAGCGGAGTCACCTAGTGCAG,12700 fluorescence intensity (a.u.)
19,GTTCATGGTCTCGCTGCCATCCTCTTCCTGCATGTCTTCTCGGAGTCACCTAGTGCAG,9310 fluorescence intensity (a.u.)
20,ATGCAACACAATGGCTCCTGCTCCTCGTCGTCTTCCTCGTCGGAGTCACCTAGTGCAG,8490 fluorescence intensity (a.u.)
21,CTTTGGGAGGGCGGCAGGCGATTAGATTTGTAAATTTTCACGGAGTCACCTAGTGCAG,8520 fluorescence intensity (a.u.)
22,GATCTATTCTGAGTCTGCTGTGCTCCATTTCTCATTCAAACGGAGTCACCTAGTGCAG,9940 fluorescence intensity (a.u.)
23,TTTTAGGTTTTTGCTTGTAACGTTTGACCACTCGTCTTATCGGAGTCACCTAGTGCAG,8510 fluorescence intensity (a.u.)
24,CTTTGTGTTGCCTTGTTGTTGGTGTCGCGCGCCCGCCATGCGGAGTCACCTAGTGCAG,10100 fluorescence intensity (a.u.)
25,TGGTGCTCGGGCCTGTTATTTAGTTGGACTTGGACGCCGGCGGAGTCACCTAGTGCAG,9580 fluorescence intensity (a.u.)
26,TGTCAAAGCTGGAATGCTATTATTTTACCACAAATTGCAACGGAGTCACCTAGTGCAG,8980 fluorescence intensity (a.u.)
27,CTCATTTTATTTCGTAGTTTTTACGTAGGCAGAGGGCCATCGGAGTCACCTAGTGCAG,8560 fluorescence intensity (a.u.)
